Laboratory results: patent US20090075309A1, “Bisdeoxycoelenterazine derivatives, methods of use, and BRET2 systems” (priority 2007, published 2009)

System: Renilla luciferase (Rluc) mutants

## O=c1c(Cc2ccccc2)nc2c(Cc3ccccc3)[nH]c(-c3ccccc3)cn1-2 [Clz400, coelenterazine-400a]
  emission peak with the Rluc mutants: around 400±5 nm
